The test deals with CD2F1 mice, L1210 leukemia ip, survival T/C. The test is described as follows: NCI In Vivo Anticancer Drug Screen. Data for tumor model L1210 Leukemia (intraperitoneal) in CD2F1 (CDF1) mice. Conditions: higher T/C = longer survival. The method in brief:
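Tumor-bearing mice (transplanted tumor) were split into treated and vehicle control groups, and the measured endpoint of each treated group was divided by that of its vehicle controls.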

Setting [1] is: T/C endpoint: mean survival time, dose: 400.0 mg/kg/injection, schedule: Q01DX001 (ip), vehicle: saline with Tween-80.
The mark [2] stands for this setting: T/C endpoint: mean survival time, dose: 400.0 mg/kg/injection, schedule: Q04DX003 (ip), vehicle: saline with Tween-80.
The mark [3] stands for this setting: T/C endpoint: mean survival time, dose: 100.0 mg/kg/injection, schedule: Q04DX002 (ip), vehicle: Klucel (hydroxypropylcellulose) (HPC).
The mark [4] stands for this setting: T/C endpoint: mean survival time, dose: 200.0 mg/kg/injection, schedule: Q04DX002 (ip), vehicle: Klucel (hydroxypropylcellulose) (HPC).
Where [5] appears, read: T/C endpoint: mean survival time, dose: 100.0 mg/kg/injection, schedule: Q01DX009 (ip), vehicle: saline with Tween-80.
The mark [6] stands for this setting: T/C endpoint: mean survival time, dose: 200.0 mg/kg/injection, schedule: Q01DX009 (ip), vehicle: saline with Tween-80.
The mark [7] stands for this setting: T/C endpoint: mean survival time, dose: 100.0 mg/kg/injection, schedule: Q04DX003 (ip), vehicle: saline with Tween-80.
[8] abbreviates: T/C endpoint: mean survival time, dose: 200.0 mg/kg/injection, schedule: Q04DX003 (ip), vehicle: saline with Tween-80.
Setting [9] is: T/C endpoint: mean survival time, dose: 400.0 mg/kg/injection, schedule: Q01DX009 (ip), vehicle: saline with Tween-80.

SMILES strings stand for the structures. The list does not hold the whole screen: it gathers tests that were run many times, whatever their T/C, doses with no T/C, and many T/C values between a quarter and a half above the control. Further doses and runs are listed elsewhere. T/C gives the treated animals as a percentage of the vehicle group. Some entries give survivors of the animals treated and no T/C: the source files T/C as zero there, which appears to mark a toxic dose or a test without result, not a measured value. Some doses without a T/C left all or most animals alive at the check, yet need not have been tolerated: survival well below the control is almost never listed, so the zero probably covers shortened survival too. Survivors were counted at the toxicity check, usually on the fifth day, unless a day is given; later deaths do not show. Schedules are NCI's codes, taken here to give the interval after Q, in days (D) or hours (H), and the number of doses after X. Some schedule codes hold Z or #, which are not explained here. Where survival is the endpoint, the PubChem record calls one and a half times the control and up active, and a quarter to a half above the control has no call in these data; cut-offs in other NCI protocols can differ.

On to `Nc1nc(N)c2cc(CCc3ccc(C(=O)NC(CCC(=O)O)C(=O)O)cc3)ccc2n1` (configuration not stated), for which the T/C is 133 % of control (T/C endpoint: mean survival time, dose: 0.08 mg/kg/injection, schedule: Q01DX009 (ip), vehicle: Klucel (hydroxypropylcellulose) (HPC)) and 132 % of control (T/C endpoint: mean survival time, dose: 0.16 mg/kg/injection, schedule: Q01DX009 (ip), vehicle: Klucel (hydroxypropylcellulose) (HPC)). Besides, the survivor count is, setting by setting: (T/C endpoint: mean survival time, dose: 0.63 mg/kg/injection, schedule: Q01DX009 (ip), vehicle: Klucel (hydroxypropylcellulose) (HPC)) 6 of 6; (T/C endpoint: mean survival time, dose: 1.25 mg/kg/injection, schedule: Q01DX009 (ip), vehicle: Klucel (hydroxypropylcellulose) (HPC)) 5 of 6.
Consider `CCOCCO`, for which the survivor count is, setting by setting: (T/C endpoint: mean survival time, dose: 100.0 mg/kg/injection, schedule: Q01DX001 (ip), vehicle: saline sonified) 0 of 6; (T/C endpoint: mean survival time, dose: 200.0 mg/kg/injection, schedule: Q01DX001 (ip), vehicle: saline sonified) 0 of 6; (T/C endpoint: mean survival time, dose: 400.0 mg/kg/injection, schedule: Q01DX001 (ip), vehicle: saline sonified) 0 of 6.
In the case of `Clc1cc2ccccc2c(Cl)n1`, the survivor count under setting [1] is 3 of 6.
For `CCCc1nc2[nH]c(N)nc(=S)c2[nH]1`, the survivor count by setting is: (T/C endpoint: mean survival time, dose: 50.0 mg/kg/injection, schedule: Q01DX005 (ip), vehicle: other) 3 of 6; (T/C endpoint: mean survival time, dose: 100.0 mg/kg/injection, schedule: Q01DX005 (ip), vehicle: other) 0 of 6; (T/C endpoint: mean survival time, dose: 200.0 mg/kg/injection, schedule: Q01DX005 (ip), vehicle: other) 0 of 6.
Consider `CC(C)(CCl)C(=O)O`, for which the survivor count under setting [2] is reported as 3 of 6.
For the molecule `O=c1cc(-c2ccccc2)[nH]c2c1CCCC2`, the T/C runs as follows: (T/C endpoint: median survival time, dose: 200.0 mg/kg/injection, schedule: Q01DX009 (ip), vehicle: saline with Tween-80) 132 % of control; (T/C endpoint: median survival time, dose: 400.0 mg/kg/injection, schedule: Q01DX009 (ip), vehicle: saline with Tween-80) 136 % of control.
On to `CN(C)c1nc(-c2ccncc2)nc(N2CCOCC2)n1`, for which the survivor count reads like this: (T/C endpoint: mean survival time, dose: 200.0 mg/kg/injection, schedule: Q04DX002 (ip), vehicle: saline with Tween-80) 1 of 3; (T/C endpoint: mean survival time, dose: 400.0 mg/kg/injection, schedule: Q04DX002 (ip), vehicle: saline with Tween-80) 0 of 3.
In the case of `CCCCCCCCCCCCNC(=O)c1ccc[n+](C)c1`, the survivor count by setting is: (T/C endpoint: mean survival time, dose: 25.0 mg/kg/injection, schedule: Q01DX009 (ip), vehicle: saline) 4 of 6; (T/C endpoint: mean survival time, dose: 50.0 mg/kg/injection, schedule: Q01DX009 (ip), vehicle: saline) 0 of 6; (T/C endpoint: mean survival time, dose: 100.0 mg/kg/injection, schedule: Q04DX003 (ip), vehicle: saline) 1 of 6; (T/C endpoint: mean survival time, dose: 200.0 mg/kg/injection, schedule: Q04DX003 (ip), vehicle: saline) 0 of 6; (T/C endpoint: mean survival time, dose: 400.0 mg/kg/injection, schedule: Q04DX003 (ip), vehicle: saline) 0 of 6.
Consider `CCN(CC)CCC(=O)c1ccc2ccc3ccccc3c2c1`, for which the survivor count (T/C endpoint: mean survival time, dose: 200.0 mg/kg/injection, schedule: Q01DX001 (ip), vehicle: saline) was 1 of 6.
For `O=C(NCCBr)Nc1ccccc1`, the survivor count is 3 of 3 under setting [3]; 3 of 3 under setting [4]; 3 of 3 (T/C endpoint: mean survival time, dose: 400.0 mg/kg/injection, schedule: Q04DX002 (ip), vehicle: Klucel (hydroxypropylcellulose) (HPC)).
As to `CN1CCN=C1c1ccc(NC(=O)Nc2ccc(NC(=O)Nc3ccc(C4=NCCN4C)cc3)cc2)cc1`, the survivor count is, setting by setting: (T/C endpoint: mean survival time, dose: 12.5 mg/kg/injection, schedule: Q01DX Z (ip), vehicle: water) 2 of 6; (T/C endpoint: mean survival time, dose: 15.0 mg/kg/injection, schedule: Q01DX Z (ip), vehicle: water) 0 of 6; (T/C endpoint: mean survival time, dose: 20.0 mg/kg/injection, schedule: Q01DX Z (ip), vehicle: water) 0 of 6; (T/C endpoint: mean survival time, dose: 30.0 mg/kg/injection, schedule: Q01DX Z (ip), vehicle: water) 0 of 6.
For `CCCCN1C(=O)C(=O)N(c2cc(Cl)c(OC)cc2OC)C1=O`, the survivor count reads like this: under setting [5], 3 of 3; under setting [6], 3 of 3.
As to `O=C1CCc2ccccc2C1C(=O)CC(O)(c1ccccc1)c1ccccc1` (configuration not stated), the survivor count reads like this: (T/C endpoint: mean survival time, dose: 50.0 mg/kg/injection, schedule: Q01DX009 (ip), vehicle: saline with Tween-80) 6 of 6; under setting [5], 6 of 6; under setting [6], 3 of 6; under setting [2], 1 of 6.
Consider `CCCCCCCCCCCCCCNC(=O)C[N+](C)(C)Cc1ccccc1`, for which the survivor count is 0 of 6 (T/C endpoint: mean survival time, dose: 2.5 mg/kg/injection, schedule: Q01DX009 (ip), vehicle: saline with Tween-80); 0 of 6 (T/C endpoint: mean survival time, dose: 5.0 mg/kg/injection, schedule: Q01DX009 (ip), vehicle: saline with Tween-80); 0 of 6 (T/C endpoint: mean survival time, dose: 10.0 mg/kg/injection, schedule: Q01DX009 (ip), vehicle: saline with Tween-80); 6 of 6 (T/C endpoint: mean survival time, dose: 20.0 mg/kg/injection, schedule: Q04DX003 (ip), vehicle: saline); 0 of 6 under setting [7]; 0 of 6 under setting [8]. The survivor count under setting [2] is reported as 0 of 6.
With `CC(C)(C)N1CCC1C(O)c1ccccc1` (configuration not stated), the survivor count by setting is: (T/C endpoint: mean survival time, dose: 200.0 mg/kg/injection, schedule: Q01DX001 (ip), vehicle: saline with Tween-80) 1 of 6; under setting [1], 0 of 6.
Regarding `Nc1nc2nc(CBr)c(CBr)nc2c(=O)[nH]1`, the survivor count reads like this: under setting [5], 3 of 6; under setting [9], 3 of 6.
In the case of `Fc1c(F)c(F)c(-c2c(F)c(F)c(-c3c(F)c(F)c(-c4c(F)c(F)c(F)c(F)c4F)c(F)c3F)c(F)c2F)c(F)c1F`, under setting [9], the survivor count is reported as 6 of 6.
Regarding `O=C1CSC(=S)N1/N=C/c1ccc(Cl)c(Cl)c1`, the survivor count is, setting by setting: (T/C endpoint: mean survival time, dose: 12.5 mg/kg/injection, schedule: Q04DX003 (ip), vehicle: saline with Tween-80) 6 of 6; (T/C endpoint: mean survival time, dose: 25.0 mg/kg/injection, schedule: Q04DX003 (ip), vehicle: saline with Tween-80) 5 of 6; under setting [7], 0 of 6; under setting [8], 0 of 6; under setting [2], 0 of 6.
Turning to `NC(=S)c1ncn(C2OC(COC=O)C(OC=O)C2OC=O)c1NC=O` (configuration not stated), the T/C runs as follows: (T/C endpoint: mean survival time, dose: 50.0 mg/kg/injection, schedule: Q01DX009 (ip), vehicle: Klucel (hydroxypropylcellulose) (HPC)) 144 % of control; under setting [3], 130 % of control; under setting [4], 136 % of control; (T/C endpoint: median survival time, dose: 25.0 mg/kg/injection, schedule: Q01DX009 (ip), vehicle: Klucel (hydroxypropylcellulose) (HPC)) 126 % of control; (T/C endpoint: median survival time, dose: 50.0 mg/kg/injection, schedule: Q01DX009 (ip), vehicle: Klucel (hydroxypropylcellulose) (HPC), evaluated on day 23) 137 % of control; (T/C endpoint: median survival time, dose: 50.0 mg/kg/injection, schedule: Q01DX009 (ip), vehicle: Klucel (hydroxypropylcellulose) (HPC), evaluated on day 30) 126 % of control. Also, the T/C reads like this: (T/C endpoint: median survival time, dose: 100.0 mg/kg/injection, schedule: Q01DX009 (ip), vehicle: Klucel (hydroxypropylcellulose) (HPC), evaluated on day 23) 148 % of control; (T/C endpoint: median survival time, dose: 100.0 mg/kg/injection, schedule: Q01DX009 (ip), vehicle: Klucel (hydroxypropylcellulose) (HPC), evaluated on day 30) 136 % of control. Besides, the survivor count is reported as 5 of 6 (T/C endpoint: mean survival time, dose: 400.0 mg/kg/injection, schedule: Q01DX009 (ip), vehicle: Klucel (hydroxypropylcellulose) (HPC)) and 0 of 6 (T/C endpoint: median survival time, dose: 400.0 mg/kg/injection, schedule: Q01DX009 (ip), vehicle: Klucel (hydroxypropylcellulose) (HPC)).
As to `CCCCCCCCCCNC(=O)C[n+]1cccc(C(=O)NCc2ccccc2)c1`, the survivor count reads like this: (T/C endpoint: mean survival time, dose: 25.0 mg/kg/injection, schedule: Q01DX009 (ip), vehicle: saline sonified) 3 of 6; (T/C endpoint: mean survival time, dose: 50.0 mg/kg/injection, schedule: Q01DX009 (ip), vehicle: saline sonified) 1 of 6; under setting [7], 6 of 6; under setting [8], 0 of 6; under setting [2], 0 of 6.

The values are drawn from PubChem BioAssay AID256 (DTP/NCI, 2004).
